Laboratory results as given in paper PMC10163288.
This is one part of the list.

B1: il2ra_site1_1z92_sap_13_mot_47733d3662eb36425869ff66b6028fdd_0001_af2_000000189_0001_37_50_H_._HHH_b2_05878_0001_0000300046_0000001_0_0001 (protein)
chain: TRKWLQERIEELREEGVPPEEIVKILLEQVEKDSGDPKLALQFLATLLRKLGDPELLKVLEELIK
B2: il2ra_site2_3nfp_normal_mot_HHH_b1_00660_af2_000000090_0001_40_57_H_._HHH_b2_02148_0001_0000400016_0000001_0_af2pred_0001_1_af2pred_swapped (protein)
chain: SSSSSDEEVREEVEELLEEAKHIPDPEERERLVLEASHLAAEAGDEELIMLVLQVLERVTSSSSS
B3: il2ra_site1_3nfp_normal_mot_HHH_b2_02053_000000240_0001_1_20_H_._HEEHE_0287_af2_0001_0000100003_0000001_0 (protein)
chain: HRDEAVRWLIEQKAEHLGVPHVEVEEHNGKLSVTVKGNDESAEELAEFAERAAEAARVPLEVRFK
B4: il2ra_site1_3nfp_normal_mot_HHH_b1_08357_af2_000000270_0001_1_19_H_._0c70b1737afd558c88fc2c362a6b1452_0001_1_af2_0001_0001100020_0000001_0 (protein)
chain: SLEQFEEDIRRNGDPEAEEALKEAVELLRELGVPPAEAAWIFIRLVVELGDPQEALRVVEEEVRK
B5: il2ra_site1_2b5i_sap_13_mot_0e5a94e4a5addaac739760efb25f0f5d_0001_000000246_0001_18_32_H_._401b3fc81aeba90f4e6d1021399306aa_0001_1_af2_0001_0000200010_0000001_0 … (protein)
chain: SSSSDEELHQVDELYREASELFRNGNPEEARKVLEEALELAKEAGDPVAVEDIRRLLEMLKSSSS
B6: il2ra_site2_3nfp_normal_mot_HHH_b1_01964_000000000_0001_19_36_H_._HHH_b1_06573_0001_0000100005_0000001_0_af2pred_0001_af2pred (protein)
chain: SSSSEEELQELLRRAKELLEEGNPEEALRLLAEALEIALELGDRELAFEIMALASEVAELLSSSS
B7: il2ra_site1_1z92_sap_19_mot_HHH_b1_01957_af2_000000000_0001_1_17_H_._HHH_b1_03966_0001_0000500021_0000001_0_0001_af2pred_0001_af2pred_1 (protein)
chain: SSSSSEKDRKLVRVLAKLLSKFQLSQEQLKILHEVALELAERGVSEEEIEEILEEVAKELSSSSS
B8: il2ra_site1_1z92_normal_mot_35b94aac26684153dbcc4bf06a514b74_0001_1_000000068_0001_35_49_H_._HHH_b2_03659_0001_0000200018_0000001_0_af2pred_0001_af2pred_1 (protein)
chain: SSSSDELERVVEELVEELGLDEDAKKRLEEAVEELKELGLSEEQAEKFLELLARHAAEHLSSSSS
B9: il2ra_site2_3nfp_normal_mot_49a7c9051cacde34b31d84fabeb7f3ea_0001_af2_000000030_0001_39_52_H_._HHH_b2_06514_af2_0001_0000600021_0000001_0 (protein)
chain: SSSSDEEEEELERLQELLKRLEEEGDRFELLRVLLRAVQLANRLGDEEAARRELKLYEKLASSSS
B10: il2ra_site1_2b5i_normal_mot_0e5a94e4a5addaac739760efb25f0f5d_0001_000000289_0001_18_32_H_._fe6bf14837f0eca3ce69ff8b196801f6_0001_0001_0000400021_0000001_0 (protein)
chain: SIEELAREAAELVEDPEVSKALVRVAWRERVGVLSPEAEELFEELVELIKKGDPRIEEIAKEILN
B11: il2ra_site2_3nfp_sap_23_mot_HHH_b1_04232_000000091_0001_1_18_H_._HHH_b2_02870_0001_0000100002_0000001_0_0001 (protein)
chain: SSSSDEVDRLIIEAYELLLNGNPEEAAKLLEEALELARELGDEEAERHIEEVLHALKMSLSSSSS
B12: il2ra_site1_3nfp_normal_mot_cb30422a6ab91adc1f3d04a5d8d2ea43_0001_000000171_0001_1_15_H_._c76af47b9a218f83f7bafcda6da8da14_0001_1_af2_0001_0001400027_0000001_0_ … (protein)
chain: DEAEELVERALELANGDEILALYLLAKLAAELGIPPEELEKLVQEVLEKTGDPRVRRILRALRRE
B13: il2ra_site1_1z92_normal_mot_HHH_b2_04293_000000220_0001_23_38_H_._HHH_b2_03060_0001_0000100003_0000001_0 (protein)
chain: SSSDEESERAVELAVRVAVEMANLSEEQKELLEELARELLEEGVDVLEIIKLLDELALRLESSSS
B14: il2ra_site1_3nfp_sap_16_mot_1d0af4279e6cd48282cc3e51f763a6be_0001_000000077_0001_33_47_H_._HEEHE_3114_0001_0000300017_0000001_0_0001_af2pred_0001_af2pred_1_swap … (protein)
chain: DEEKELAELIKEAVEKNDPELLERVARELLKELGDPRAASELFKELLKKAGLSPKEIYEALRSVA
B15: il2ra_site2_3nfp_normal_mot_HHH_b1_05627_af2_000000038_0001_43_56_H_._HHH_b1_00117_0001_0000500025_0000001_0 (protein)
chain: SSSSKSHEYLRVALLIAKLALEQGDPESARESAEAALQLAEDAKDPELFEEIERLLEEIEGSSSS
B16: il2ra_site1_2b5i_normal_mot_HHH_b2_04910_000000118_0001_1_19_H_._HHH_b2_04613_af2_0001_0000200035_0000001_0_af2pred_0001_af2pred (protein)
chain: SSSSDRELAERVWELLEEANEAFKNGNPEEAEKLLEEARELAEENNNRSLLKVVEAALRILSSSS
B17: il2ra_site1_1z92_normal_mot_HHH_b1_00368_000000203_0001_23_39_H_._HHH_b2_01204_0001_0000400077_0000001_0_af2pred_0001_af2pred_1 (protein)
chain: SSSSDDIAKNLVRVLVRAAGLSEEAEEELEELAKRLLEEGYSPEEISRILHKLALELDERLSSSS
B18: il2ra_site1_1z92_sap_19_mot_HHH_b2_07164_000000082_0001_1_15_H_._ddd5b65e98111f608b3a4ab1c0de386d_0001_af2_0001_0000800012_0000001_0_0001_af2pred_0001_af2pred_s … (protein)
chain: SSSSDEARRLAKLVAELAREYGASDEVFLELSRLADELFARGLSEEEIEELLKRLIEELLSSSSS
B19: il2ra_site1_3nfp_sap_16_mot_HHH_b1_00739_000000172_0001_19_38_H_._HHH_b1_07028_af2_0001_0000600035_0000001_0_0001 (protein)
chain: SAMEISRILRKLLRRVPPEVRKLLQEVLRLLVRGNPEEAEKVLEEILELVGDPLVEELLELVRKW
B20: il2ra_site2_2erj_normal_mot_HHH_b1_06608_000000059_0001_22_39_H_._HHH_b2_01923_0001_0000300007_0000001_0_1_af2pred_0001_af2pred (protein)
chain: SSSSSSDLEELLEEIKEAIEEGDEELAARLLSEAIQLADEEGDEETLKELLRLVELVFSSSSSSS
B21: il2ra_site2_3nfp_sap_13_mot_HHH_b1_08097_000000036_0001_22_39_H_._3020bb65e3c0c4c1750efda2a61ed53f_0001_1_af2_0001_0000400015_0000001_0_0001 (protein)
chain: SSSSDEERERAEELFELIEELREEGDEERLLEALWELMRLAFEVGDPKLAEISNRAYEIVQSSSS
B22: il2ra_site1_2b5i_sap_17_mot_2cbe48e66a1f39b3fed734b245ab0a04_0001_000000015_0001_17_31_H_._HHH_b1_01921_0001_0000600034_0000001_0_0001_af2pred_dldesign_0_af2pre … (protein)
chain: SSSSSDVKEVLELFEEANKLFQAGKPEEAKEVLEKALEKAKALGAEAHIRIIESALEQLESSSSS
B23: il2ra_site2_2erj_normal_mot_HHH_b1_00821_000000191_0001_1_20_H_._HHH_b1_06496_0002_0000200014_0000001_0 (protein)
chain: SSSSSDVQERVLELLFEAIRIIDPEEREKVLEEARQLAEERNDEEAKLAVETFERYEERLSSSSS
B24: il2ra_site1_2b5i_sap_18_mot_HHH_b2_02828_af2_000000092_0001_43_56_H_._HHH_b1_08026_0001_0000100002_0000001_0_0001_af2pred_dldesign_0_af2pred (protein)
chain: SSSSSEDRLEARRLFFEADRLKQAGKEEEAKEALEKAKELAEKAGNKLLKKQIELALASLSSSSS

Each binder was assayed against il2ra, P01589 (assay: yeast display titration).

Binder | apparent Kd
B1 | inactive: no binding seen
B2 | inactive: no binding seen
B3 | inactive: no binding seen
B4 | inactive: no binding seen
B5 | inactive: no binding seen
B6 | inactive: no binding seen
B7 | inactive: no binding seen
B8 | inactive: no binding seen
B9 | inactive: no binding seen
B10 | inactive: no binding seen
B11 | inactive: no binding seen
B12 | inactive: no binding seen
B13 | inactive: no binding seen
B14 | inactive: no binding seen
B15 | inactive: no binding seen
B16 | inactive: > 670 nM
B17 | inactive: no binding seen
B18 | inactive: no binding seen
B19 | inactive: no binding seen
B20 | inactive: no binding seen
B21 | inactive: no binding seen
B22 | inactive: no binding seen
B23 | inactive: no binding seen
B24 | inactive: no binding seen

Laid out differently: results already given
Binder	apparent Kd
B8	inactive: no binding seen
B9	inactive: no binding seen
B10	inactive: no binding seen
B14	inactive: no binding seen
B15	inactive: no binding seen
B19	inactive: no binding seen
